Test results taken from patent publication US12448414B2 (Anhui Agricultural University, priority 2023, dated 2025).

Test: general procedure: Fmoc solid-phase peptide synthesis; Rink resin; DIC
Settings: whole synthesis, HPLC

Substance: WWKLLRKL-NH2
- purity (crude or final not stated) (run 1): 96.40%
- purity (crude or final not stated) (run 2): greater than 95%

No end group written: not given here.
